# Some of the results follow.
# B1: Endo180d1-D4 (Homo sapiens), Q9UBG0 (protein)
# chain: MGPGRPAPAPWPRHLLRCVLLLGCLHLGRPGAPGDAALPEPNVFLIFSHGLQGCLEAQGGQVRVTPACNTSLPAQRWKWVSRNRLFNLGTMQCLGTGWPGTNTTASLGMYECDREALNLRWHCRTLGDQLSLLLGARTSNISKPGTLERGDQTRSGQWRIYGSEEDLCALPYHEVYTIQGNSHGKPCTIPFKYDNQWFHGCTSTGREDGHLWCATTQDYGKDERWGFCPIKSNDCETFWDKDQLTDSCYQFNFQSTLSWREAWASCEQQGADLLSITEIHEQTYINGLLTGYSSTLWIGLNDLDTSGGWQWSDNSPLKYLNWESDQPDNPSEENCGVIRTESSGGWQNRDCSIALPYVCKKKPNATAEPTPPDRWANVKVECEPSWQPFQGHCYRLQAEKRSWQESKKACLRGGGDLVSIHSMAELEFITKQIKQEVEELWIGLNDLKLQMNFEWSDGSLVSFTHWHPFEPNNFRDSLEDCVTIWGPEGRWNDSPCNQSLPSICKKAGQLSQGAAEEDHGCRKGWTWHSPSCYWLGEDQVTYSEARRLCTDHGSQLVTITNRFEQAFVSSLIYNWEGEYFWTALQDLNSTGSFFWLSGDEVMYTHWNRDQPGYSRGGCVALATGSAMGLWEVKNCTSFRARYICRQSLGTPVTPELPGPDPTPSLTGSCPQGWASDTKLRYCYKVFSSERLQDKKSWVQAQGACQELGAQLLSLASYEEEHFVANMLNKIFGESEPEIHEQHWFWIGLNRRDPRGGQSWRWSDGVGFSYHNFDRSRHDDDDIRGCAVLDLASLQWVAMQCDTQLDWICKIPRGTDVREPDDSPQGRREWLRFQEAEYKFFEHHSTWAQAQRICTWFQAELTSVHSQAELDFLSHNLQKFSRAQEQHWWIGLHTSESDGRFRWTDGSIINFISWAPGKPRPVGKDKKCVYMTASREDWGDQRCLTALPYICKRSNVTKETQPPDLPTTALGGCPSDWIQFLNKCFQVQGQEPQSRVKWSEAQFSCEQQEAQLVTITNPLEQAFITASLPNVTFDLWIGLHASQRDFQWVEQEPLMYANWAPGEPSGPSPAPSGNKPTSCAVVLHSPSAHFTGRWDDRSCTEETHGFICQKGTDPSLSPSPAALPPAPGTELSYLNGTFRLLQKPLRWHDALLLCESHNASLAYVPDPYTQAFLTQAARGLRTPLWIGLAGEEGSRRYSWVSEEPLNYVGWQDGEPQQPGGCTYVDVDGAWRTTSCDTKLQGAVCGVSSGPPPPRRISYHGSCPQGLADSAWIPFREHCYSFHMELLLGHKEARQRCQRAGGAVLSILDEMENVFVWEHLQSYEGQSRGAWLGMNFNPKGGTLVWQDNTAVNYSNWGPPGLGPSMLSHNSCYWIQSNSGLWRPGACTNITMGVVCKLPRAEQSSFSPSALPENPAALVVVLMAVLLLLALLTAALILYRRRQSIERGAFEGARYSRSSSSPTEATEKNILVSDMEMNEQQE
# Tests used:
# Assay in all cases: glycan array binding signal (z-score within array); higher = stronger binding
# Conditions in all cases: glycan notation: IUPAC condensed, linker removed
# [1] = molecular target: Fuc(a1-2)Gal(b1-4)GlcNAc(b1-3)Gal(b1-4)GlcNAc(b1-2)Man(a1-3)[Fuc(a1-2)Gal(b1-4)GlcNAc(b1-3)Gal(b1-4)GlcNAc(b1-2)Man(a1-6)]Man(b1-4)GlcNAc(b1-4)GlcNAc
# In short: (§1)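 Glycan array binding is given as a within-array Z-score, which can be read as non-binding when negative. The arrays, 3228 of them, came from the Consortium for Functional Glycomics database and were retained only where the protein sequence was available. Z-scores were averaged across arrays of the same protein sequence at different concentrations or buffers and across linkers.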
# [2] = molecular target: Fuc(a1-2)Gal(b1-4)GlcNAc(b1-3)Gal(b1-4)GlcNAc(b1-3)Gal(b1-4)GlcNAc
# In short: as §1
# [3] = molecular target: Fuc(a1-2)Gal(b1-4)GlcNAc(b1-3)GalNAc
# In short: as §1
# [4] = molecular target: Fuc(a1-2)Gal(b1-4)GlcNAc(b1-3)[Fuc(a1-2)Gal(b1-4)GlcNAc(b1-6)]GalNAc
# In short: as §1
# [5] = molecular target: Fuc(a1-2)Gal(b1-4)GlcNAc(b1-3)[Fuc(a1-3)[Gal(b1-4)]GlcNAc(b1-6)]Gal(b1-4)Glc
# In short: as §1
# [6] = molecular target: Fuc(a1-2)Gal(b1-4)GlcNAc(b1-6)GalNAc
# In short: as §1
# [7] = molecular target: Fuc(a1-2)Gal(b1-4)GlcNAc6S
# In short: as §1
# [8] = molecular target: Fuc(a1-2)Gal(b1-4)[Fuc(a1-3)]GlcNAc
# In short: as §1
# [9] = molecular target: Fuc(a1-2)Gal(b1-4)[Fuc(a1-3)]GlcNAc(b1-2)Man(a1-3)[Fuc(a1-2)Gal(b1-4)[Fuc(a1-3)]GlcNAc(b1-2)Man(a1-6)]Man(b1-4)GlcNAc(b1-4)[Fuc(a1-6)]GlcNAc
# In short: as §1
# [10] = molecular target: Fuc(a1-2)Gal(b1-4)[Fuc(a1-3)]GlcNAc(b1-2)[Fuc(a1-2)Gal(b1-4)[Fuc(a1-3)]GlcNAc(b1-4)]Man(a1-3)[Fuc(a1-2)Gal(b1-4)[Fuc(a1-3)]GlcNAc(b1-2)Man(a1-6)]Man(b1-4)GlcNAc(b1-4)GlcNAc
# In short: as §1
# [11] = molecular target: Fuc(a1-2)Gal(b1-4)[Fuc(a1-3)]GlcNAc(b1-3)Gal(b1-4)[Fuc(a1-3)]GlcNAc
# In short: as §1
# [12] = molecular target: Fuc(a1-2)Gal(b1-4)[Fuc(a1-3)]GlcNAc(b1-3)Gal(b1-4)[Fuc(a1-3)]GlcNAc(b1-3)Gal(b1-4)[Fuc(a1-3)]GlcNAc
# In short: as §1
# [13] = molecular target: Fuc(a1-2)Gal(b1-4)[Fuc(a1-3)]GlcNAc(b1-3)GalNAc
# In short: as §1
# [14] = molecular target: Fuc(a1-2)Gal(b1-4)[Fuc(a1-3)]GlcNAc(b1-3)[Neu5Ac(a2-6)Gal(b1-4)GlcNAc(b1-6)]Gal(b1-4)Glc
# In short: as §1
# [15] = molecular target: Fuc(a1-2)Gal3S(b1-4)GlcNAc
# In short: as §1
# [16] = molecular target: Fuc(a1-2)Gal6S(b1-3)GlcNAc
# In short: as §1
# [17] = molecular target: Fuc(a1-2)Gal6S(b1-3)GlcNAc6S
# In short: as §1
# Fuc(a1-2)Gal6S(b1-4)Glc = molecular target: Fuc(a1-2)Gal6S(b1-4)Glc
# In short: as §1
# [18] = molecular target: Fuc(a1-2)Gal6S(b1-4)Glc6S
# In short: as §1
# Fuc(a1-2)GlcNAc = molecular target: Fuc(a1-2)GlcNAc
# In short: as §1
# Fuc(a1-2)[Gal(a1-3)]Gal = molecular target: Fuc(a1-2)[Gal(a1-3)]Gal
# In short: as §1
# [19] = molecular target: Fuc(a1-2)[Gal(a1-3)]Gal(b1-3)GalNAc
# In short: as §1
# [20] = molecular target: Fuc(a1-2)[Gal(a1-3)]Gal(b1-3)GalNAc(b1-3)Gal(a1-4)Gal(b1-4)Glc
# In short: as §1
# [21] = molecular target: Fuc(a1-2)[Gal(a1-3)]Gal(b1-3)GlcNAc
# In short: as §1
# [22] = molecular target: Fuc(a1-2)[Gal(a1-3)]Gal(b1-3)GlcNAc(b1-2)Man(a1-3)[Fuc(a1-2)[Gal(a1-3)]Gal(b1-3)GlcNAc(b1-2)Man(a1-6)]Man(b1-4)GlcNAc(b1-4)GlcNAc
# In short: as §1
# [23] = molecular target: Fuc(a1-2)[Gal(a1-3)]Gal(b1-3)GlcNAc(b1-2)Man(a1-3)[Fuc(a1-2)[Gal(a1-3)]Gal(b1-3)GlcNAc(b1-2)Man(a1-6)]Man(b1-4)GlcNAc(b1-4)[Fuc(a1-6)]GlcNAc
# In short: as §1
# [24] = molecular target: Fuc(a1-2)[Gal(a1-3)]Gal(b1-3)GlcNAc(b1-3)GalNAc
# In short: as §1
# [25] = molecular target: Fuc(a1-2)[Gal(a1-3)]Gal(b1-3)GlcNAc(b1-6)GalNAc
# In short: as §1
# [26] = molecular target: Fuc(a1-2)[Gal(a1-3)]Gal(b1-4)Glc
# In short: as §1
# [27] = molecular target: Fuc(a1-2)[Gal(a1-3)]Gal(b1-4)GlcNAc
# In short: as §1
binder,measurement,setting,value
B1,glycan array binding signal (z-score),[1],-1.43
same,glycan array binding signal (z-score),[2],-0.515
same,glycan array binding signal (z-score),[3],-0.326
same,glycan array binding signal (z-score),[4],0.043
same,glycan array binding signal (z-score),[5],2.16
same,glycan array binding signal (z-score),[6],0.241
same,glycan array binding signal (z-score),[7],-0.503
same,glycan array binding signal (z-score),[8],0.153
same,glycan array binding signal (z-score),[9],-0.683
same,glycan array binding signal (z-score),[10],0.707
same,glycan array binding signal (z-score),[11],1.23
same,glycan array binding signal (z-score),[12],-0.015
same,glycan array binding signal (z-score),[13],-0.774
same,glycan array binding signal (z-score),[14],-0.988
same,glycan array binding signal (z-score),[15],-0.383
same,glycan array binding signal (z-score),[16],0.254
same,glycan array binding signal (z-score),[17],0.591
same,glycan array binding signal (z-score),Fuc(a1-2)Gal6S(b1-4)Glc,-0.051
same,glycan array binding signal (z-score),[18],-1.82
same,glycan array binding signal (z-score),Fuc(a1-2)GlcNAc,-0.251
same,glycan array binding signal (z-score),Fuc(a1-2)[Gal(a1-3)]Gal,-0.587
same,glycan array binding signal (z-score),[19],0.04
same,glycan array binding signal (z-score),[20],-0.341
same,glycan array binding signal (z-score),[21],0.125
same,glycan array binding signal (z-score),[22],-0.265
same,glycan array binding signal (z-score),[23],0.622
same,glycan array binding signal (z-score),[24],-0.445
same,glycan array binding signal (z-score),[25],0.628
same,glycan array binding signal (z-score),[26],-0.174
same,glycan array binding signal (z-score),[27],-0.059

# 2 consecutive entries already listed, for reference:
binder,measurement,setting,value
B1,glycan array binding signal (z-score),[26],-0.174
same,glycan array binding signal (z-score),[27],-0.059
